# Laboratory results from the supplement of paper PMC6411743.
# Protein sequences, listed by entry. Tags and fused reporters are not part of them. Lines headed by an entry give the natural chain unless they say otherwise; changes in a name come on top.
# UniProt Q9H6S1, whole entry: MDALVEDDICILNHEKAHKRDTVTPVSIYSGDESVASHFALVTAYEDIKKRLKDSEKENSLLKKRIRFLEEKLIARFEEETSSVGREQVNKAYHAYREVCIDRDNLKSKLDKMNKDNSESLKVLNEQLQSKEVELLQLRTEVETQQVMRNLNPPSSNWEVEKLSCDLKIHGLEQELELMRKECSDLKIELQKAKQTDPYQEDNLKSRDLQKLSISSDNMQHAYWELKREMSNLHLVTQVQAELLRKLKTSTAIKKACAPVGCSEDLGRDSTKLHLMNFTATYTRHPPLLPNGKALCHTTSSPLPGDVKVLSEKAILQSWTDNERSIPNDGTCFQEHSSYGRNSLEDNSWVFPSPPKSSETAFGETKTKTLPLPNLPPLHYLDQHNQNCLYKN
# UniProt Q9H1K1: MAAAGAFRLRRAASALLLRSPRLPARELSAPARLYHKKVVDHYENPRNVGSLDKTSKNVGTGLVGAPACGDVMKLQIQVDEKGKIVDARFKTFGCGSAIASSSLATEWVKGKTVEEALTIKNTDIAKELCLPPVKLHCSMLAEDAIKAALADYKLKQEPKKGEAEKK
# UniProt Q9H444: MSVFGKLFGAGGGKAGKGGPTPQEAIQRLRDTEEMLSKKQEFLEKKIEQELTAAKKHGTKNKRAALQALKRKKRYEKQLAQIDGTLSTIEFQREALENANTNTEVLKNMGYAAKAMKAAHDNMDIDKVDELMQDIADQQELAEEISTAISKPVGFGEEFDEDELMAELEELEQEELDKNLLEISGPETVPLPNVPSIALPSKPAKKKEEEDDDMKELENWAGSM
# UniProt Q9HA64: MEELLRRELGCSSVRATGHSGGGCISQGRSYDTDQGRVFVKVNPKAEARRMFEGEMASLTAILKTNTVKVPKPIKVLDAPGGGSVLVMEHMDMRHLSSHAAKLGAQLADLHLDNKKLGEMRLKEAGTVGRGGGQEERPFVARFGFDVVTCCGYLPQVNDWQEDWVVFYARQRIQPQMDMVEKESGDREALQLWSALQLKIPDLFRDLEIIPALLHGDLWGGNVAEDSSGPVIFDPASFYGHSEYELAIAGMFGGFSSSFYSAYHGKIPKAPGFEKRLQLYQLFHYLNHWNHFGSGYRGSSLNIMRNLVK
# UniProt Q9H6D7: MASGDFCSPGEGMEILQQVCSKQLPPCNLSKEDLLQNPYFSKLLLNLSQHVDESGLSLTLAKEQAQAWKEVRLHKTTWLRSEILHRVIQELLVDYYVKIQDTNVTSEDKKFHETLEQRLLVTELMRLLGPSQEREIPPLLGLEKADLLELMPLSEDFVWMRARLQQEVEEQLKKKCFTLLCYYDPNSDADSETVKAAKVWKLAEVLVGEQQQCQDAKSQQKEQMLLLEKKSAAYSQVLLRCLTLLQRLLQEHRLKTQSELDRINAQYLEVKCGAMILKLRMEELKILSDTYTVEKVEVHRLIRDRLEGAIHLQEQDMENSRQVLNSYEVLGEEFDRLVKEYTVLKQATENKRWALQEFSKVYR
# UniProt Q9H553: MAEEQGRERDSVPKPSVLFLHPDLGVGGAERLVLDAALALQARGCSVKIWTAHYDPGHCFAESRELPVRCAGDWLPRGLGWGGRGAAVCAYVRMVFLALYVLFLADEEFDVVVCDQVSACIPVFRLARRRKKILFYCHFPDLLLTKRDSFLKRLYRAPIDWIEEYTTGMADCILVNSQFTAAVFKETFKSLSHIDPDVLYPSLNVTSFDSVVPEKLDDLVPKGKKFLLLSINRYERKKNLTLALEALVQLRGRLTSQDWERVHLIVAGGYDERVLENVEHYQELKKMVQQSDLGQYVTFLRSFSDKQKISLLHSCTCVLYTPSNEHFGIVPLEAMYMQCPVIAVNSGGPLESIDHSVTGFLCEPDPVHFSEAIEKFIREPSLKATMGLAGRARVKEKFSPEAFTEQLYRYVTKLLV
# UniProt Q9H061: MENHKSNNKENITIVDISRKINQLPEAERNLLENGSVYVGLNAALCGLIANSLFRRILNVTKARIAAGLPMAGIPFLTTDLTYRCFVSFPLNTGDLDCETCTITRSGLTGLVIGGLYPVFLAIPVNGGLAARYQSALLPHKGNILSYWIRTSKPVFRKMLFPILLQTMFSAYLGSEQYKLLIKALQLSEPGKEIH
# UniProt Q9H1K0: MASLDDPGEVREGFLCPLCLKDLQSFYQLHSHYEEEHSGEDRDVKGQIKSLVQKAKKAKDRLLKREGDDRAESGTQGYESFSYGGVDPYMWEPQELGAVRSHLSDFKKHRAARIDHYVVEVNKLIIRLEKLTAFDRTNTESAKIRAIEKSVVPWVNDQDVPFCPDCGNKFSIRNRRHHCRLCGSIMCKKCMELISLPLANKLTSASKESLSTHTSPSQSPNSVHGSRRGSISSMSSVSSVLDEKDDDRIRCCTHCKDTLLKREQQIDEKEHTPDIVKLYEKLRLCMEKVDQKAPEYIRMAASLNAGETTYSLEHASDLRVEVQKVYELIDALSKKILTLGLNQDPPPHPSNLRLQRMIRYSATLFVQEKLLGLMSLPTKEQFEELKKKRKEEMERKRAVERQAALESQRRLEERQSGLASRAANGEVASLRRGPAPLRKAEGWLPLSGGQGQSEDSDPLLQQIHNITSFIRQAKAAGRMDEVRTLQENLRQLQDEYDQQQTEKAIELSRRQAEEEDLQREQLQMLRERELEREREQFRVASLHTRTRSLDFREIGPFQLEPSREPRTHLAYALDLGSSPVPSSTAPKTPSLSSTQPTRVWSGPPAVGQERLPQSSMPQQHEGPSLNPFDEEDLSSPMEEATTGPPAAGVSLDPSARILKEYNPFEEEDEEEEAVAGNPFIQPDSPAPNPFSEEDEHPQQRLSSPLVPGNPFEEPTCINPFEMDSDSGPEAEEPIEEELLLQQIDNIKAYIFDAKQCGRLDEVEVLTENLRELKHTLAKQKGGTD
# UniProt Q9HA92: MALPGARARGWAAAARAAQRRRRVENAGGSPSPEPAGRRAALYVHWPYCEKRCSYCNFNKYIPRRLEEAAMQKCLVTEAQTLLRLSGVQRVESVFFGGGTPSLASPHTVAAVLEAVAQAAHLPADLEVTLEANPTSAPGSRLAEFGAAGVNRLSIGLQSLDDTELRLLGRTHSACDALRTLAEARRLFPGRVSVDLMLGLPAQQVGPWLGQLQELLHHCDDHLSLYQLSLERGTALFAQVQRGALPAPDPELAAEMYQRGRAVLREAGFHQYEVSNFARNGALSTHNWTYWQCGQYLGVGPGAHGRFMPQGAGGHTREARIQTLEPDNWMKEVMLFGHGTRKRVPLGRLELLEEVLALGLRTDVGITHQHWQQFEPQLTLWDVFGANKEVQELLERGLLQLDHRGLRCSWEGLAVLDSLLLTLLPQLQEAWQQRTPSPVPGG
# UniProt Q9HCS7: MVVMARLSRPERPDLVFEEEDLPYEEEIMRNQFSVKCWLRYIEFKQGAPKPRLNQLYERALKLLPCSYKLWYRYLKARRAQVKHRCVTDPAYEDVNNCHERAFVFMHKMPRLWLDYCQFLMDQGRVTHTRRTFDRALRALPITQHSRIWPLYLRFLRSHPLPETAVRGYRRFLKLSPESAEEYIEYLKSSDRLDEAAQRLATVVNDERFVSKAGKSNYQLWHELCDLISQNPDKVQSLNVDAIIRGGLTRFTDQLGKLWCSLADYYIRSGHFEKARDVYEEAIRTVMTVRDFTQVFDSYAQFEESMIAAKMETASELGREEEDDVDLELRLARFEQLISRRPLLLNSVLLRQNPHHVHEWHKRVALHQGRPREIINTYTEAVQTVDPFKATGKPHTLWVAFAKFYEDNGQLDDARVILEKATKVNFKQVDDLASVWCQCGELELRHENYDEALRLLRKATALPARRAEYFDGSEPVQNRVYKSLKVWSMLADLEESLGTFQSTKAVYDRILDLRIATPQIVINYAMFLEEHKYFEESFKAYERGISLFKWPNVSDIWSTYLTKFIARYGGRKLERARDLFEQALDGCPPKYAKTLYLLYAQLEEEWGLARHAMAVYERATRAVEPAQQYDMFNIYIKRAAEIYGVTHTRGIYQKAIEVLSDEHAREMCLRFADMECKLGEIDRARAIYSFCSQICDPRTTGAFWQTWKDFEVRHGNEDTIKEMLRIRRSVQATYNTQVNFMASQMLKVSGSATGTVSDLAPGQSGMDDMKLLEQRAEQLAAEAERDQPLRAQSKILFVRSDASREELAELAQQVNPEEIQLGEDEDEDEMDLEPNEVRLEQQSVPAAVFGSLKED
# UniProt Q9HA77: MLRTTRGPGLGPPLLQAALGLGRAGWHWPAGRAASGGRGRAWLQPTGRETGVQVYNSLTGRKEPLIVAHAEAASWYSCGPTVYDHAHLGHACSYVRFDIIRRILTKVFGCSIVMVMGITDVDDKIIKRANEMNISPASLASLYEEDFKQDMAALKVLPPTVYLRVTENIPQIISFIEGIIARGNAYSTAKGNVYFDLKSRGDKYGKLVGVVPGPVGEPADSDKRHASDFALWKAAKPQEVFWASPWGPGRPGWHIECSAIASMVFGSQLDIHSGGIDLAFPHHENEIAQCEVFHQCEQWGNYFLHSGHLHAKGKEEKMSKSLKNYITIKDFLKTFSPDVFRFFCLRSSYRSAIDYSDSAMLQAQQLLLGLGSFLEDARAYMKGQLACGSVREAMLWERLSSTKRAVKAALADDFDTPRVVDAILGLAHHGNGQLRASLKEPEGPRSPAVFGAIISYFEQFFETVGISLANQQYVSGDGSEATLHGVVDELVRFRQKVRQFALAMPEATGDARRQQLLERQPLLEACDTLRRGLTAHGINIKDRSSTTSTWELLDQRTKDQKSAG
# UniProt Q9HD15: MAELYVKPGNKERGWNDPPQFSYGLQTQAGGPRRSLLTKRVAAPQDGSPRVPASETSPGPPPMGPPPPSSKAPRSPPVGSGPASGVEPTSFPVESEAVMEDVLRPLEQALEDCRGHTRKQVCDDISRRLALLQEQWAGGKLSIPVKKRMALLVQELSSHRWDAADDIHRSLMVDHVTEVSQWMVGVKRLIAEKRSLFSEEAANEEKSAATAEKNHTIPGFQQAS
# UniProt Q9H7N4: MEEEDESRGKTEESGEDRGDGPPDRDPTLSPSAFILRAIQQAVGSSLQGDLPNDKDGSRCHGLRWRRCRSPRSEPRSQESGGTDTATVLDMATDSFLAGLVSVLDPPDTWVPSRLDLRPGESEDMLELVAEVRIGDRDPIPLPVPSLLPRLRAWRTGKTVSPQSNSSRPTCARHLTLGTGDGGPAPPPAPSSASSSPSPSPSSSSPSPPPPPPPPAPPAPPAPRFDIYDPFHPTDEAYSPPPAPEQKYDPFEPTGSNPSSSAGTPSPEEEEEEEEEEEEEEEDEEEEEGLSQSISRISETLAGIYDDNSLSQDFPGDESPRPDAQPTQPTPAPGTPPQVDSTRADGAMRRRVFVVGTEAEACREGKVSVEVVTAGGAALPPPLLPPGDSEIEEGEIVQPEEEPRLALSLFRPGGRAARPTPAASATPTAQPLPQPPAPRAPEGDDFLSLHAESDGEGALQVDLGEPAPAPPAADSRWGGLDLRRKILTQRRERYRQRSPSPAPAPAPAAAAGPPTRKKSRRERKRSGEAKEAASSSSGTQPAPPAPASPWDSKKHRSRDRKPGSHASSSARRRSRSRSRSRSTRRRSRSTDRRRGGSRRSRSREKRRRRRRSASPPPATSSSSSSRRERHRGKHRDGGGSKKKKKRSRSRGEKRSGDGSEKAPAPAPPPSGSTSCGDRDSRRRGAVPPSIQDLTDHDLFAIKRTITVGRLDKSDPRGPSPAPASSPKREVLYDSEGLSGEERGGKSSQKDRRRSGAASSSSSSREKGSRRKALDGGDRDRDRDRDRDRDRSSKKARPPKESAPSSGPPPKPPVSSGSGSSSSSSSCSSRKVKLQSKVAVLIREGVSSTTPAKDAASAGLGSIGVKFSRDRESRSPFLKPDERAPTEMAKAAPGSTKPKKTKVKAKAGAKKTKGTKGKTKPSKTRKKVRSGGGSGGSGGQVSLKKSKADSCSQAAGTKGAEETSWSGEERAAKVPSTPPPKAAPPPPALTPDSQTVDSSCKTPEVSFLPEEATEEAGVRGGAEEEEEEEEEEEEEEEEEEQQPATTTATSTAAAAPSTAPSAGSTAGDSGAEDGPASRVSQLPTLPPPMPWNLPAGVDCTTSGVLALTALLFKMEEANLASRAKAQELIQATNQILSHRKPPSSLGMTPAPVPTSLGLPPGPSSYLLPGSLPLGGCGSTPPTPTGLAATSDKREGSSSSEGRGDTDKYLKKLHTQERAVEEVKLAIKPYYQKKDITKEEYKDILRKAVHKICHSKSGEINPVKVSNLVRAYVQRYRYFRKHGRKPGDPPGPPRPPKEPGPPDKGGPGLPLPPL
# UniProt Q9H2P9: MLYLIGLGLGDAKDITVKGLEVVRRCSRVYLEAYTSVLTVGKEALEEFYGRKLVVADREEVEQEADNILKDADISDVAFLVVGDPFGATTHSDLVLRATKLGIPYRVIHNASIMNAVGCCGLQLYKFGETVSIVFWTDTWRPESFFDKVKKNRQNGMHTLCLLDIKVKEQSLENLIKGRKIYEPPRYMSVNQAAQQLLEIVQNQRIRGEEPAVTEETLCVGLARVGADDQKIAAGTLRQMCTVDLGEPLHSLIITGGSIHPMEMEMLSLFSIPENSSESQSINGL
# ± gives the standard deviation of the averaged measurements. The list shows a part of the results, in another mix than the full data.
# Compound: Nc1ncnc2c1ncn2[C@@H]1O[C@H](COP(=O)(O)OP(=O)(O)OP(=O)(O)O)[C@@H](O)[C@H]1O [adenosine triphosphate]
# Assay: NP40-soluble protein abundance relative to vehicle (solubility fold change) (ratio); higher = more soluble protein in presence of ATP
# In short: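 Each value is a fold change relative to the detergent-processed vehicle, calculated per replicate from vsn-normalised intensities. Jurkat crude lysate received eight concentrations (0.1 to 10 mM) for 10 min at room temperature and 3 min at 37 °C, then was solubilised in 0.8% NP40 with benzonase (60 min, 4 °C). The ultracentrifuged supernatant was TMT-labelled and run by LC-MS/MS in three independent experiments.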
Target,NP40-soluble protein abundance (concentration: 1mM),NP40-soluble protein abundance (concentration: 2mM),NP40-soluble protein abundance (concentration: 4mM),NP40-soluble protein abundance (concentration: 6mM),NP40-soluble protein abundance (concentration: 8mM),NP40-soluble protein abundance (concentration: 10mM)
AZI2 (UniProt Q9H6S1),1.01 ± 0.12,0.99 ± 0.04,0.967 ± 0.065,0.96 ± 0.029,0.958 ± 0.14,0.92 ± 0.14
ANAPC1 (UniProt Q9H1A4),1.1 ± 0.061,1.05 ± 0.043,1.05 ± 0.012,1.01 ± 0.076,1.06 ± 0.027,1.04 ± 0.049
JPH1 (UniProt Q9HDC5),1.17 ± 0.072,1.23 ± 0.13,1.28 ± 0.1,1.34 ± 0.12,1.31 ± 0.044,1.43 ± 0.094
ISCU (UniProt Q9H1K1),0.933 ± 0.054,0.927 ± 0.029,0.917 ± 0.021,0.953 ± 0.027,0.912 ± 0.02,0.887 ± 0.021
CHMP4B (UniProt Q9H444),1.04 ± 0.16,1.02 ± 0.099,1.02 ± 0.13,1.1 ± 0.11,1.03 ± 0.053,0.951 ± 0.17
FN3KRP (UniProt Q9HA64),1 ± 0.028,1.01 ± 0.057,0.983 ± 0.054,0.98 ± 0.1,1.02 ± 0.066,0.991 ± 0.047
UniProt Q9H6D7 and related entries,1.04 ± 0.13,1.01 ± 0.086,1.05 ± 0.11,1.01 ± 0.11,1.09 ± 0.058,0.965 ± 0.081
UniProt Q9H3H1 and related entries,1.03 ± 0.031,1.06 ± 0.05,1.01 ± 0.045,1.02 ± 0.056,1.04 ± 0.06,0.988 ± 0.032
ALG2 (UniProt Q9H553),1.03 ± 0.045,0.985 ± 0.021,0.945 ± 0.084,0.949 ± 0.096,0.962 ± 0.057,0.946 ± 0.051
UBA5 (UniProt Q9GZZ9),0.965 ± 0.016,0.967 ± 0.055,0.946 ± 0.041,0.975 ± 0.053,0.948 ± 0.057,0.948 ± 0.047
TMEM126A (UniProt Q9H061),1.01 ± 0.13,1.01 ± 0.064,0.976 ± 0.087,0.893 ± 0.086,1 ± 0.046,1.05 ± 0.1
UniProt Q9NP50,0.93 ± 0.022,0.96 ± 0.073,0.95 ± 0.035,1 ± 0.1,0.964 ± 0.05,1.03 ± 0.065
UniProt Q9H1K0,0.924 ± 0.16,0.958 ± 0.15,0.909 ± 0.11,0.846 ± 0.17,0.914 ± 0.068,0.882 ± 0.077
RSAD1 (UniProt Q9HA92),1.2 ± 0.052,1.15 ± 0.14,1.1 ± 0.066,1.11 ± 0.069,1.05 ± 0.019,1.1 ± 0.054
XAB2 (UniProt Q9HCS7),1.1 ± 0.1,1 ± 0.06,1.01 ± 0.066,0.939 ± 0.047,1.04 ± 0.057,1.02 ± 0.092
CARS2 (UniProt Q9HA77),0.97 ± 0.018,0.984 ± 0.017,0.955 ± 0.011,0.93 ± 0.041,0.954 ± 0.015,0.95 ± 0.013
REEP4 (UniProt Q9H6H4),0.928 ± 0.08,0.958 ± 0.065,0.957 ± 0.1,0.898 ± 0.12,0.938 ± 0.14,0.965 ± 0.069
UniProt Q9HCJ0 and related entries,0.98 ± 0.1,1.03 ± 0.055,1.01 ± 0.069,1.05 ± 0.099,1.03 ± 0.081,1.05 ± 0.047
SRA1 (UniProt Q9HD15),0.9965 ± 0.0092,0.955 ± 0.083,1.03 ± 0.028,0.983 ± 0.092,0.973 ± 0.042,0.901 ± 0.078
SCAF1 (UniProt Q9H7N4),1.34 ± 0.11,1.4 ± 0.11,1.48 ± 0.087,1.58 ± 0.091,1.49 ± 0.077,1.51 ± 0.087
UniProt Q9H2P9 and related entries,0.973 ± 0.045,0.9495 ± 0.0053,0.92 ± 0.051,0.929 ± 0.041,0.941 ± 0.045,0.946 ± 0.022

# Laid out differently: entries from further up
Target | NP40-soluble protein abundance (concentration: 1mM) | NP40-soluble protein abundance (concentration: 2mM) | NP40-soluble protein abundance (concentration: 4mM) | NP40-soluble protein abundance (concentration: 6mM) | NP40-soluble protein abundance (concentration: 8mM) | NP40-soluble protein abundance (concentration: 10mM)
ISCU (UniProt Q9H1K1) | 0.933 ± 0.054 | 0.927 ± 0.029 | 0.917 ± 0.021 | 0.953 ± 0.027 | 0.912 ± 0.02 | 0.887 ± 0.021
CHMP4B (UniProt Q9H444) | 1.04 ± 0.16 | 1.02 ± 0.099 | 1.02 ± 0.13 | 1.1 ± 0.11 | 1.03 ± 0.053 | 0.951 ± 0.17
